Results deposited as PubChem BioAssay AID1259425 (University of Nebraska Medical Center, 2018).

Aim: 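Find knockdowns that reproduce the gene expression pattern seen when KSR1 is lost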 (primary screen)
System: HCT116 human colon cancer cells
Knock-down reagent: siRNA pool against human genes, 50 nM siRNA
Measurement: 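After 50 nM siRNA pool, branched-DNA assay measures six marker transcripts per well, minus blank, normalised to the geometric mean of two housekeeping transcripts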
Direction: BNIP3L mRNA: higher = more BNIP3L transcript after knockdown; NDRG1 mRNA: higher = more NDRG1 transcript after knockdown
The whole screen tested about 14,000 reagents; below is a random part of them. Further read-outs or replicates are left out here. Not given: the time to read-out.

BNIP3L: BNIP3L mRNA, set 1 = 0.0066; NDRG1 mRNA, set 1 = 0.0878
PSMC4: BNIP3L mRNA, set 1 = 0.137; NDRG1 mRNA, set 1 = 1.61
TLR10: BNIP3L mRNA, set 1 = 0.0707; NDRG1 mRNA, set 1 = 0.182
DNAAF11: BNIP3L mRNA, set 1 = 0.072; NDRG1 mRNA, set 1 = 0.107
IFT122: BNIP3L mRNA, set 1 = 0.149; NDRG1 mRNA, set 1 = 0.334
NUDT11: BNIP3L mRNA, set 1 = 0.104; NDRG1 mRNA, set 1 = 0.268
GFRA1: BNIP3L mRNA, set 1 = 0.102; NDRG1 mRNA, set 1 = 0.136
SEMA3C: BNIP3L mRNA, set 1 = 0.141; NDRG1 mRNA, set 1 = 0.277
CHIT1: BNIP3L mRNA, set 1 = 0.346; NDRG1 mRNA, set 1 = 0.365
MID1: BNIP3L mRNA, set 1 = 0.0501; NDRG1 mRNA, set 1 = 0.184
ADCK5: BNIP3L mRNA, set 1 = 0.273; NDRG1 mRNA, set 1 = 0.339
CLCN1: BNIP3L mRNA, set 1 = 0.0296; NDRG1 mRNA, set 1 = 0.174
